Experimental data published in patent CN114133451A.
No constants are given. Whether binding was seen depends on the method and setting. Some entries that bind do so weakly or less than the wild type.

Target: T1, 重组弓形虫毒力因子ROP18 (Toxoplasma gondii) (UniProt Q2PAY2)
T1 sequence (looked up): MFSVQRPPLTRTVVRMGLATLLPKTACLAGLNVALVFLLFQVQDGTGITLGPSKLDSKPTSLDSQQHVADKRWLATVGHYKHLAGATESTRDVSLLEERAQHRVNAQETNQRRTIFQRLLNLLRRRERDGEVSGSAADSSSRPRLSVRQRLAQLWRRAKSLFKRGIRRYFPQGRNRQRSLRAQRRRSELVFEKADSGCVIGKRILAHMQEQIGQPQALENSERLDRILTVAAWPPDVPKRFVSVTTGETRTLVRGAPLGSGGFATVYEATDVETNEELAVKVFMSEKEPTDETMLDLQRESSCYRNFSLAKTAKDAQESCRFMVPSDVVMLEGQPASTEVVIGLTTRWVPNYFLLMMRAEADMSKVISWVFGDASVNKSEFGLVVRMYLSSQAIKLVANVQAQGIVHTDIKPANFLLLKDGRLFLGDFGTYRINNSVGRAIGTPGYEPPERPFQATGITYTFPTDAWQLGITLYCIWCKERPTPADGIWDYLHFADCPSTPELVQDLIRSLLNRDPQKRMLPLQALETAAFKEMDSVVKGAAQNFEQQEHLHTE
Experiment: ELISA of crude periplasmic extract on coated antigen, anti-His detection

B1: 弓形虫毒力因子ROP18纳米抗体22号克隆株 (VHH, not shown: small tags and cut ends)
VHH: QVQLVESGGGSVQAGGSLRLSCVASRYTYTYSTYCLGWFRQAPGKEREEIAIIDSDGGARYADSVKGRFTISRDNAKSTLYLHMNSLKPDDTAMYSCAAGRPAPSLGYKCMYNSRHKGTLVTVSS
For B1, the binding was “binds”.
